PMC5408348, “The biochemical properties of the two Arabidopsis thaliana isochorismate synthases” (Biochemical Journal, 2017)
These are yes or no findings as the source states them, for the method shown.

Protein sequences, listed by entry. Tags and fused reporters are not part of them. Residues count along the entry.
UniProt Q9S7H8, residues 46-569: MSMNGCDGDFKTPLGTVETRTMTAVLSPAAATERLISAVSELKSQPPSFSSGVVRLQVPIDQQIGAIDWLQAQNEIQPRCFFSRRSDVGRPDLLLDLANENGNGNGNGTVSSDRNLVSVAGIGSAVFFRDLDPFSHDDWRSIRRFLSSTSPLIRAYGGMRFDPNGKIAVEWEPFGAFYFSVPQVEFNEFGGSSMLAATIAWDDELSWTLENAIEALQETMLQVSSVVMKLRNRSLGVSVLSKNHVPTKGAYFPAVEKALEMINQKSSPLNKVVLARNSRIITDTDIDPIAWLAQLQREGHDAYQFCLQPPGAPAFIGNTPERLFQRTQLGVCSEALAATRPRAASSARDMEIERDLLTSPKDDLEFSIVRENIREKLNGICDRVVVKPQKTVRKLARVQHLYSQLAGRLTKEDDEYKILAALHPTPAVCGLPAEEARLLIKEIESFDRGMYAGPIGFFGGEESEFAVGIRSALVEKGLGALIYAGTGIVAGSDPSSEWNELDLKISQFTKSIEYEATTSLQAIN

Target: His6-AtICS1 (Arabidopsis thaliana isochorismate synthase 1, hexahistidine fusion, without the transit peptide) (Arabidopsis thaliana) (UniProt Q9S7H8)
Assay: SEC; HiLoad 16/60 Superdex 200 preparative grade column with standards; 50 mM Tris-HCl pH 8.0, 500 µM EDTA, 10% v/v glycerol, 1 mM DTT; 4°C; 0.5 ml/min; both purified

binding: no binding
Substance: His6-AtICS1 (Arabidopsis thaliana isochorismate synthase 1, hexahistidine fusion, without the transit peptide) (from UniProt Q9S7H8 46-569) (enzyme)
